Source: PubChem BioAssay AID504648 (National Center for Advancing Translational Sciences (NCATS), 2011)
Screen size: about 390,000 compounds; about 610 (0.16%) were called active. Inconclusive results, whose numbers are uncertain, are shown with a selection of clear calls. Calls follow the shape of the dose curve; as a rule, active = well fitted inhibition curve with a large enough effect; inconclusive = small, poorly fitted or top-dose-only effect, or effect the other way, or another doubt; inactive = no such curve, though single readings can be large or run the other way. Potencies of inconclusive entries are doubtful fits and often do not repeat.

assay: Nrf2 qHTS screen for inhibitors: counterscreen for cytotoxicity; details: A549 ARE-Fluc cells, CellTiter-Fluor viability, 18-24 h; activity change, negative = cytotoxicity: at 46 µM (top of the series)
Procedure, shortened: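 A549 ARE-Fluc cells in 5% FBS OPTI-MEM, 5000 cells/well, rested 2 h then exposed to compounds in concentration-response for 18-24 h at 37 °C. Viability by CellTiter-Fluor fluorescence (Ex 405/Em 525) after 30 min; luciferase luminescence (BugLite, 15 min, RT) read afterwards.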
% is scaled to controls: 0 for no effect and ±100 for the full control effect; potency is read from the fitted curve at half-maximal effect.

Row | SMILES | activity change, negative = cytotoxicity | Potency
1 | Cc1ccc(C(=O)OCc2nc3ccccc3s2)o1 | inactive: 2.29% | 
2 | O=C(Nc1ccc(Br)cc1)c1cccc(S(=O)(=O)Nc2ccccn2)c1 |  | inconclusive: 16.4 µM [falling, partial curve, poor fit]
3 | COc1ccc(NS(=O)(=O)c2ccc3[nH]c4c(c3c2)CCCC4)c(OC)c1 | inactive: -11.4% | 
4 | CCCc1sc(N/N=C/c2ccccn2)nc1-c1ccc(Br)cc1 |  | inconclusive: 14.6 µM [falling, partial curve, poor fit]
5 | O=C(NCc1csc(-c2cccs2)n1)c1cccc(Cl)c1 |  | inconclusive: 29.1 µM [falling, single point]
6 | Cn1c(/C=C/c2ccc(Br)cc2)c([N+](=O)[O-])c(=O)n(C)c1=O |  | inconclusive: 14.6 µM [falling, single point]
7 | O=S(=O)(NCC(Nc1ccccc1)c1ccccc1)c1ccc(Cl)cc1 (stereo not given) |  | inconclusive: 16.4 µM [falling, partial curve, poor fit]
8 | CCCCCCCCCn1c2c(c(=N)c3c1CCC3)CCCC2 |  | inconclusive: 29.1 µM [falling, partial curve, poor fit]
9 | CCOc1ccc(C(=O)C(C)OC(=O)C2CCN(c3ccc(C(F)(F)F)cn3)CC2)cc1 (stereo not given) |  | inconclusive: 29.1 µM [falling, single point]
10 | CCCN1C(C(=O)c2ccccc2)=C(OC(=O)c2ccc(F)cc2)c2ccccc2S1(=O)=O |  | inconclusive: 18.4 µM [falling, single point]
11 | COc1ccc(CCN(C(=O)C(F)(F)F)C(C(=O)NC2CCCC2)c2cccs2)cc1 (stereo not given) |  | inconclusive: 29.1 µM [falling, partial curve, poor fit]
12 | O=C(NNC(=O)c1ccccc1F)c1ccc2[nH]c(=O)c(=O)[nH]c2c1 | inactive: -0.249% | 
13 | O=C(ON=C1CCN(c2ccc([N+](=O)[O-])cc2)CC1)c1ccccc1 |  | inconclusive: 8.2 µM [falling, partial curve, poor fit]
14 | Cc1ccc2[nH]c3c(c2c1)CN(C(=O)CN1CCN(c2ccccn2)CC1)CC3 |  | inconclusive: 2.91 µM [activator, full curve, poor fit]
15 | COc1cccc(Cc2nc3ccccc3nc2SCC(=O)N2CCCCC2C)c1 (stereo not given) | inactive: -5.46% | 
16 | COc1cccc(C(=O)CN2CCN(S(=O)(=O)c3ccc(Cl)cc3)CC2)c1 | inactive: 1.06% | 
17 | CC(=O)Nc1ccc(Nc2ccc([N+](=O)[O-])cn2)cc1 |  | inconclusive: 20.6 µM [falling, partial curve, poor fit]
18 | Cc1cc(-n2c(=O)c(C#N)cc3c(=O)n4ccccc4nc32)no1 |  | inconclusive: 32.6 µM [activator, partial curve, poor fit]
19 | N#C/C(=C\c1ccc(-c2ccc(C(=O)O)cc2)o1)C(=O)NCC1CCCO1 (stereo not given) |  | inconclusive: 18.4 µM [falling, single point]
20 | CC1(C)c2[nH]c3ccccc3c2C[C@@H]2C(=O)N(Cc3ccccc3Cl)C(=O)N21 |  | inconclusive: 18.4 µM [falling, single point]
21 | O=C(CCCCn1c(=O)c2ccccc2n(Cc2ccc(F)cc2Cl)c1=O)NCc1ccco1 |  | inconclusive: 29.1 µM [falling, single point]
22 | C/C(=N\Nc1nc2c(s1)CCCC2)c1ccccc1 | inactive: -13.4% | 
23 | CCc1ccccc1NC(=O)C1CCN(c2nn3c(=O)cc(C)nc3s2)CC1 | inactive: 6.21% | 

By substructure, the compounds so far with a nitro group on carbon.
Row | SMILES | activity change, negative = cytotoxicity | Potency
6 | Cn1c(/C=C/c2ccc(Br)cc2)c([N+](=O)[O-])c(=O)n(C)c1=O |  | inconclusive: 14.6 µM [falling, single point]
13 | O=C(ON=C1CCN(c2ccc([N+](=O)[O-])cc2)CC1)c1ccccc1 |  | inconclusive: 8.2 µM [falling, partial curve, poor fit]
17 | CC(=O)Nc1ccc(Nc2ccc([N+](=O)[O-])cn2)cc1 |  | inconclusive: 20.6 µM [falling, partial curve, poor fit]

Later entries.

Row | SMILES | activity change, negative = cytotoxicity | Potency
24 | CCOc1cc(/C=C2\C(=O)ON=C2c2ccccc2)cc(Br)c1O |  | inconclusive: 16.4 µM [falling, partial curve]
25 | O=C(Nc1ccc(N2CCCC2)c(Cl)c1)c1ccco1 | inactive: 2.19% | 
26 | N#CC1(C(N)=O)OC12CCS(=O)(=O)c1ccccc12 (stereo not given) |  | inconclusive: 2.59 µM [activator, partial curve, poor fit]
27 | CC1CC(C)CN(CCCNC(=O)CCNC(=O)Cn2ccc3ccccc3c2=O)C1 (stereo not given) |  | inconclusive: 29.1 µM [activator, partial curve, poor fit]
28 | O=C(COC(=O)c1cccnc1Cl)NCCC1=CCCCC1 | inactive: 1.21% | 
29 | COc1ccc(C(CCNCc2ccc(OC(C)C)cc2)c2ccccc2OC)cc1 (stereo not given) |  | inconclusive: 25.9 µM [falling, partial curve, poor fit]
30 | CCOC(=O)C1CCCN1C(=O)C1(NC(C)=O)CCCC1 (stereo not given) | inactive: -4.82% | 
31 | O=C(COc1ccc(/C=N/NC(=O)c2cc3ccccc3o2)cc1Br)Nc1ccccc1 |  | inconclusive: 29.1 µM [falling, single point]
32 | COc1cccc(/C=C2\SC(=S)N(CCCC(=O)N3CCCC3)C2=O)c1 |  | inconclusive: 29.1 µM [falling, single point]
33 | CN1C(=O)[C@H]2[C@@H](c3ccc(F)cc3)N3C(=O)c4ccccc4NC(=O)[C@@]3(C)[C@H]2C1=O | inactive: -0.864% | 
34 | Cc1cc2c(cc3c(SCc4ccc(Cl)cc4)nncn32)o1 | inactive: -1.23% | 
35 | O=S(=O)(NCC(Nc1ccc(Cl)cc1)c1ccccc1)c1ccc(Cl)cc1 (stereo not given) |  | inconclusive: 29.1 µM [falling, single point]
36 | O=C(NCC1(c2ccccc2)CCCC1)C(=O)NCC1(c2ccccc2)CCCC1 | inactive: 8.28% | 
37 | COc1ccc(-n2cnc3cc(C(=O)NC4CCCCCC4)ccc32)cc1 | inactive: -3.31% | 
38 | COCCNC(=O)CSc1nc(-c2ccccc2)cs1 | inactive: 3.07% | 
39 | O=C(CSc1nccn1-c1cccc(Cl)c1)Nc1cccc2ccccc12 | inactive: 6.71% | 
40 | CC1CCCCN1S(=O)(=O)c1ccc(C(=O)Nc2sccc2C(N)=O)cc1 (stereo not given) |  | inconclusive: 32.6 µM [falling, partial curve, poor fit]
41 | Cc1nc2c(C(F)(F)F)cccc2c2c1CCS2 |  | inconclusive: 6.51 µM [activator, full curve, poor fit]
42 | CCCC(=O)NC(=S)Nc1cccc(Cl)c1N1CCCCC1 |  | inconclusive: 29.1 µM [falling, single point]
43 | CN(C)c1cccc(C(=O)Nc2nc3ccc(S(=O)(=O)N4CCCC4)cc3s2)c1 | inactive: -7.63% | 
44 | COc1ccc(N2CCc3c(C)nc4c(OC)cccc4c32)cc1 | inactive: -16.8% | 
45 | CCOc1cccc(CN2CCC(Oc3ccc(C(=O)N4CCCC4)cc3)CC2)c1 |  | inconclusive: 18.4 µM [falling, partial curve, poor fit]
